# No constants are given. Whether binding was seen depends on the method and setting. In cells and extracts the contact can be indirect. A yes stands for co-enrichment or nearness to the bait. Other partners may have been found. For part of these data: A no says only that the protein was not detected with the bait.
# Amino acid sequences for entries named in this document (tags omitted).
# UniProt P51979: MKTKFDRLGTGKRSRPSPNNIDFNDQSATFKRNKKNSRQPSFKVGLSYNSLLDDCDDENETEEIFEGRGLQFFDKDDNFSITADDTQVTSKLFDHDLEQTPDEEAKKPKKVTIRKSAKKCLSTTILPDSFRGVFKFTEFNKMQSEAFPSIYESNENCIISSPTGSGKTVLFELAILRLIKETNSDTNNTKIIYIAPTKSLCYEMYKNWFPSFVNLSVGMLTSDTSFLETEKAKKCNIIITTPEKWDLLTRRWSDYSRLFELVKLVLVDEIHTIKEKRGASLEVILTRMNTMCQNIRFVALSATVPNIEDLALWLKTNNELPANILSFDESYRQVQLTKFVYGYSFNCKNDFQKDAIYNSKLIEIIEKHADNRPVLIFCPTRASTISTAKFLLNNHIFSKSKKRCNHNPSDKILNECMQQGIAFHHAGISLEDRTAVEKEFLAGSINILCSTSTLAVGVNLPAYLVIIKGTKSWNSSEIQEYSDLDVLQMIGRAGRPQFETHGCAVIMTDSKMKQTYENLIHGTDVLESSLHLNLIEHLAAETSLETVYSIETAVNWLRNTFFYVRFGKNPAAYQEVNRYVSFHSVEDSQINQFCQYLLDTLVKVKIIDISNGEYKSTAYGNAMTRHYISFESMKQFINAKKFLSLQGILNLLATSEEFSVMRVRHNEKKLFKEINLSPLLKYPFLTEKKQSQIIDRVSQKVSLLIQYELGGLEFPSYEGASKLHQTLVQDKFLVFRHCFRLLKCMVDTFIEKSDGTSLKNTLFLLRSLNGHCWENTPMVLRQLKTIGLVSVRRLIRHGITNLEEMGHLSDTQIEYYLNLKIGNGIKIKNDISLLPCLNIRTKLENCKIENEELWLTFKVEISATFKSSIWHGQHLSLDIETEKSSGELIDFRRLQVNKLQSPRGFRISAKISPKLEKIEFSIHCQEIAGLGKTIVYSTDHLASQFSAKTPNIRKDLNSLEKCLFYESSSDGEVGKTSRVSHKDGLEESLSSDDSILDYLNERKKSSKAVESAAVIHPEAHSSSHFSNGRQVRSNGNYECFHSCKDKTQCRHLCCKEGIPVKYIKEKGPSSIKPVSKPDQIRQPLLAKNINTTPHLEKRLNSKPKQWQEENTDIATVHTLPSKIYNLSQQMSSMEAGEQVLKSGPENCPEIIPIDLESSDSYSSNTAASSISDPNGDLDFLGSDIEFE
# T1: Mlh3-TurboID (S. cerevisiae) (UniProt Q12083)
# T1 sequence: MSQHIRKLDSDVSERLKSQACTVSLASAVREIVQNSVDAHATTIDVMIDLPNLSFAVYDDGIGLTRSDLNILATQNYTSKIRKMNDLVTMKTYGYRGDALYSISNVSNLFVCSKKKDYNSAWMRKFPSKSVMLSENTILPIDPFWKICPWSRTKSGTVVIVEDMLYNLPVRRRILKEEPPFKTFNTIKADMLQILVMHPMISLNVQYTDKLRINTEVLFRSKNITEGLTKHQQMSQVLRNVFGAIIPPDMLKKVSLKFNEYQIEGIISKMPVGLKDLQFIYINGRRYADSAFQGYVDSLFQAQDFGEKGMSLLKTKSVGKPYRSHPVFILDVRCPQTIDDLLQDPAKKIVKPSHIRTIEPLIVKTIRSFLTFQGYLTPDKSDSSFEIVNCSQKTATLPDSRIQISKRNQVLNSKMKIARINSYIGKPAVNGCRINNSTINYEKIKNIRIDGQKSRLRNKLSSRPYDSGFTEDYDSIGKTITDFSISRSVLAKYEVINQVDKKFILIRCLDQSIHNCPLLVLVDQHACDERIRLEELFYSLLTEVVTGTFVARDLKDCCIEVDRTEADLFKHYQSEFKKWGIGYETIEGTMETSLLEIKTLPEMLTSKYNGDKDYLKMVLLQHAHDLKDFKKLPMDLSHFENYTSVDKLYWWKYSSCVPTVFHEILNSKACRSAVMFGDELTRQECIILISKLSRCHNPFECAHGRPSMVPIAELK
# T2: Msh5-TurboID (S. cerevisiae) (UniProt Q12175)
# T2 sequence: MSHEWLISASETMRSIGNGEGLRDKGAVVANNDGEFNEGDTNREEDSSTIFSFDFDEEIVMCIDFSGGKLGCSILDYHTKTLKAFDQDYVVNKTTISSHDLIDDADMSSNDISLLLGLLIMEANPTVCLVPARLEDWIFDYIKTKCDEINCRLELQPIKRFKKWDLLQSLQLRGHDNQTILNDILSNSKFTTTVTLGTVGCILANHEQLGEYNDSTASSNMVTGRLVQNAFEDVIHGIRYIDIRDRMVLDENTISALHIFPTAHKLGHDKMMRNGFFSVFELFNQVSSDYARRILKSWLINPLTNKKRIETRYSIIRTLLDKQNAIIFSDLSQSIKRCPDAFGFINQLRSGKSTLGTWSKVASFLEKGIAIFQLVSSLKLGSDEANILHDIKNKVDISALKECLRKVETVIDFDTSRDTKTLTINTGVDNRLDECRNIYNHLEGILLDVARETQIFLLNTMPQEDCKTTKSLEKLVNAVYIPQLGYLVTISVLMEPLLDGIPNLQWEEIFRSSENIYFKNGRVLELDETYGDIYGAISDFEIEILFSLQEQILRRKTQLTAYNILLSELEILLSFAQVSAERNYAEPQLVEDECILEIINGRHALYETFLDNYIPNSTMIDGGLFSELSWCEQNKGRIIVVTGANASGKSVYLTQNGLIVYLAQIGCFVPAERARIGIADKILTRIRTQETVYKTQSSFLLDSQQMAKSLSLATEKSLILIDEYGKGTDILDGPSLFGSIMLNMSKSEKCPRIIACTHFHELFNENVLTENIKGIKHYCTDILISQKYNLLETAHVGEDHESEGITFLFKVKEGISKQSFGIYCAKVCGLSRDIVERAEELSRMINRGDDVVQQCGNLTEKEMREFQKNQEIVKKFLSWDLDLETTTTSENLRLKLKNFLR
# T3: Spo16-TurboID (S. cerevisiae) (UniProt P17122)
# T3 sequence: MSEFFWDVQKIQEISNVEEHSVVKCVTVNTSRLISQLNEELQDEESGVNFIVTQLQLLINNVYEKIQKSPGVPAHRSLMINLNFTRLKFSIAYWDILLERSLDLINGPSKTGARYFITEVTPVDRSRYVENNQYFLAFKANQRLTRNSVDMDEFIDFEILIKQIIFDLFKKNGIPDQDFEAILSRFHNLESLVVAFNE
# T4: TurboID-Gmc2 (S. cerevisiae) (UniProt Q06201)
# T4 sequence: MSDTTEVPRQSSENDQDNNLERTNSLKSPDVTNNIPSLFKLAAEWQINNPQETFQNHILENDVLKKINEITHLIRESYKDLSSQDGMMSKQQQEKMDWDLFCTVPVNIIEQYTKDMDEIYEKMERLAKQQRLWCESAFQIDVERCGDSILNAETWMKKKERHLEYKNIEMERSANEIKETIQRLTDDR
# T5: Zip3iTurboID (S. cerevisiae) (UniProt Q06032)
# T5 sequence: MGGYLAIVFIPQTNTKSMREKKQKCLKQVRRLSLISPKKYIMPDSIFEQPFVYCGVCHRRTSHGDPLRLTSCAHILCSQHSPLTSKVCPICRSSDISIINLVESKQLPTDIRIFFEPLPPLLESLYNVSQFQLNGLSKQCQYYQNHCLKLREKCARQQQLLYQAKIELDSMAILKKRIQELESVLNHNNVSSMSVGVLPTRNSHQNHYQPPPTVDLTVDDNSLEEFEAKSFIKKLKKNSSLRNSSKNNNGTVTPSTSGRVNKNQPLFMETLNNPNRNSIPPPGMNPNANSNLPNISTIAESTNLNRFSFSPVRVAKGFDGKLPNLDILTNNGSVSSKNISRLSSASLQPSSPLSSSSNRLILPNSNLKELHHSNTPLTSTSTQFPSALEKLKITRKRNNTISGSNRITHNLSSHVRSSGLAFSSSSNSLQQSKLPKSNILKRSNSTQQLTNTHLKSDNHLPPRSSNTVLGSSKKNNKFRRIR
# B1: Pif1 helicase (protein, UniProt P07271 46-859)
# chain: RSNNFIQAQLKHPSILSKEDLDLLSDSDDWEEPDCIQLETEKQEKKIITDIHKEDPVDKKPMRDKNVMNFINKDSPLSWNDMFKPSIIQPPQLISENSFDQSSQKKSRSTGFKNPLRPALKKESSFDELQNNSISQERSLEMINENEKKKMQFGEKIAVLTQRPSFTELQNDQDDSNLNPHNGVKVKIPICLSKEQESIIKLAENGHNIFYTGSAGTGKSILLREMIKVLKGIYGRENVAVTASTGLAACNIGGITIHSFAGIGLGKGDADKLYKKVRRSRKHLRRWENIGALVVDEISMLDAELLDKLDFIARKIRKNHQPFGGIQLIFCGDFFQLPPVSKDPNRPTKFAFESKAWKEGVKMTIMLQKVFRQRGDVKFIDMLNRMRLGNIDDETEREFKKLSRPLPDDEIIPAELYSTRMEVERANNSRLSKLPGQVHIFNAIDGGALEDEELKERLLQNFLAPKELHLKVGAQVMMVKNLDATLVNGSLGKVIEFMDPETYFCYEALTNDPSMPPEKLETWAENPSKLKAAMEREQSDGEESAVASRKSSVKEGFAKSDIGEPVSPLDSSVFDFMKRVKTDDEVVLENIKRKEQLMQTIHQNSAGKRRLPLVRFKASDMSTRMVLVEPEDWAIEDENEKPLVSRVQLPLMLAWSLSIHKSQGQTLPKVKVDLRRVFEKGQAYVALSRAVSREGLQVLNFDRTRIKAHQKVIDFYLTLSSAESAYKQLEADEQVKKRKLDYAPGPKYKAKSKSKSNSPAPISATTQSNNGIAAMLQRHSRKRFQLKKESNSNQVHSLVSDEPRGQDTEDHILE
# B2: Zip1 (protein, UniProt P31111 1-875)
# chain: MSNFFRDSSMGFKPRPNIFAKLRVRDVDSDSSANTVVENSSNCLDVGSSIEGDDTFKKPHKTSTEQELITSMSLSQRNHGYSDDMEIGSPKKTTSTDQYNRILKNDVAAIENDTDEDFEITEVREVSEGVAKETKESHGDPNDSETTLKDSKMHEYTMTNGKAPLHTSINNSSTSSNDVLLEAFTNTQRICSNLKQELQKQQQDNAKLKVRLQSYASNSDKINEKVGKYKSCLETLQERIATLTSHKNNQETKLKDLRQNHQLYQRRISGFKTSIENLNKTINDLGKNKKEADAELMKKGKEIEYLKRELDDCSGQLSEEKIKNSSLIQEMGKNREEMIKSIENFFSEDKAHHLLQFNKFEERVHDLFEKKLQKHFDVAKDTLNVGLRNTTVELSSNTETMLKQQYEDIKENLEQKMSSSKDEMAKTINELSVTQKGLIMGVQEELLTSSGNIQTALVSEMNNTRQELLDDASQTAKNYASLENLVKAYKAEIVQSNEYEERIKHLESERSTLSSQKNQIISSLGTKEAQYEDLVKKLEAKNIEISQISGKEQSLTEKNENLSNELKKVQDQLEKLNNLNITTKSNYENKISSQNEIVKALVSENDTLKQRIQQLVEIKENEQKDHTTKLEAFQKNNEQLQKLNVEVVQLKAHELELEEQNRHLKNCLEKKETGVEESLSDVKTLKQQVIVLKSEKQDITAEKLELQDNLESLEEVTKNLQQKVQSQKRELEQKIKELEEIKNHKRNEPSKKGTQNFTKPSDSPKKNATTSNLFPNNSAAIHSPMKKCPKVDHISKSRINSSKETSKFNDEFDLSSSSNDDLELTNPSPIQIKPVRGKIKKGSNCMKPPISSRKKLLLVEDEDQSLKISKKRRRK
# B3: Rim4 (protein, UniProt P38741 1-713)
# chain: MKTEISTADSLRDPPSNGLKADSELVIREDIDQFLPSEVSSLGSDHQNDGEDSDTDSDNFLQDPEDDVDEESTGRGTVTTTSTSTESRGRPSSCIFVASLAAALSDDELCLSVTENFKKYGDLARVKVLRDNANRPYAFVQYNNDHDAKHALIRAQGTLLNGRRLRCEPAKVNRTLYLKNQQSIDFNEISQICEKFGGLEQIVPDRTDNQYTRRYTYPISSANSWFVQFVYRDDAIRAYANLRTDPNWIIEWAQNINVPKNYNLLHKSKFKSSKYHQNNGIINNDGSNNNDNNNSNNNNREDSRRNGDVIEEECGHVHGSDSEEKLTSDGIYDDEDKDSEITIDKRSIFVGQLDKETTREELNRRFSTHGKIQDINLIFKPTNIFAFIKYETEEAAAAALESENHAIFLNKTMHVQYKEVGGRHNRKFSGKNGGSNFNHHQFFSTRSGKTFTGPELNLAPPPINMYRKMSGGSQQESETMMPYMPMGPMPMGPPPPNAASLSDFDMFPPSYSTFMKGMMPLRRKSMPNSWSSPSSKSVNSENESVNGGDENSELPSEIPESSGRYNAANSFTTYNNSSAGNSNNNNNNNNSNSNKSQYKKRYARRSSYGYNEVPPKPYYFQPYYYHPMQYHMGPMGPLHPSQGSAGNHHPYMMVYPMSPPPPSGLDGSMIPPPINVSQSHAANHGSTHVHANEFISNDTGDINEDNKAYSLDY
# Target: Mer3-TurboID (S. cerevisiae) (UniProt P51979)
# Test: proximity labelling
row,binding,Binder
1,binds,B1
2,binds,B2
3,binds,B3

# Target: T1, Mlh3-TurboID (S. cerevisiae)
# Test: proximity labelling
row,binding,Binder
1,no binding,B1
2,no binding,B2
3,binds,B3

# Target: T2, Msh5-TurboID (S. cerevisiae)
# Test: proximity labelling
row,binding,Binder
1,binds,B1
2,binds,B2
3,binds,B3

# Target: T3, Spo16-TurboID (S. cerevisiae)
# Test: proximity labelling
row,binding,Binder
1,binds,B1
2,binds,B2
3,binds,B3

# Target: T4, TurboID-Gmc2 (S. cerevisiae)
# Test: proximity labelling
row,binding,Binder
1,no binding,B1
2,no binding,B2
3,binds,B3

# Target: T5, Zip3iTurboID (S. cerevisiae)
# Test: proximity labelling
row,binding,Binder
1,binds,B1
2,binds,B2
3,binds,B3
